In PubChem BioAssay (EPA / NIEHS):
The inconclusive results got no clear call from the source; some entries with a clear call stand among them for comparison. Potencies of inconclusive entries are doubtful fits and often do not repeat. The source made the active and inactive calls. How the source made its calls: active means hit-call score of the fitted dose curve at least 0.9, where 1 is the maximum; inconclusive means response in the unintended direction; inactive means score below 0.9.

Amino acid sequences for entries named in this document (tags omitted). A change or cut given only in a name is not applied to a line headed by its entry.
UniProt P19490: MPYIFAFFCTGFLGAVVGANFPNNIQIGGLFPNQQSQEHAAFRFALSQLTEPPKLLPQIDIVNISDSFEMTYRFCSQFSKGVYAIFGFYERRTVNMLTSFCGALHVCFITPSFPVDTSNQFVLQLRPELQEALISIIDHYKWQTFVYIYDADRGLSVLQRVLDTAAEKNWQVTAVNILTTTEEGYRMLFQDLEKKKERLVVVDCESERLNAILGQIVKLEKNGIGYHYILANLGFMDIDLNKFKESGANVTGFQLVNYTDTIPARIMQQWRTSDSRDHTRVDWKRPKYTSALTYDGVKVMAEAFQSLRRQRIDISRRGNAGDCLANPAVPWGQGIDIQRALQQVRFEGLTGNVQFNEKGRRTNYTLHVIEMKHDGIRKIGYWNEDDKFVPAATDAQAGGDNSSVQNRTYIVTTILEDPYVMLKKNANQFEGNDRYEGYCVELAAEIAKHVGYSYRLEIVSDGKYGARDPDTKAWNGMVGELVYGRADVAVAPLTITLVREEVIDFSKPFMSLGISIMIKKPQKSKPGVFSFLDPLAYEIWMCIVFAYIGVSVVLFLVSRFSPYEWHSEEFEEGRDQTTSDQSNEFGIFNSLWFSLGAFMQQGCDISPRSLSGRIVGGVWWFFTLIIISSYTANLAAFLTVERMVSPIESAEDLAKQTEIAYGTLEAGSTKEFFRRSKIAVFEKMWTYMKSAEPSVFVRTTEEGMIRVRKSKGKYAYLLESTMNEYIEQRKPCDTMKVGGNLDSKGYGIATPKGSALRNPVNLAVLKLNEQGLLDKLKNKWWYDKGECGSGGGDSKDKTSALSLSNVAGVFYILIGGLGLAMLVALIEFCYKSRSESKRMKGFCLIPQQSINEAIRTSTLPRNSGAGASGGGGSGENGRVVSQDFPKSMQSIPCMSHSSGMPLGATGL

target: rat Glutamate, AMPA Site (AMPA), Gria1 (gene 50592) (UniProt P19490); experiment: NVS_LGIC_rAMPA: NovaScreen (NVS) Ligand-Gated Ion Channel Assay for rat Glutamate, AMPA Site (AMPA) (AID 2283324)
Method: NVS_LGIC_rAMPA is a biochemical, single-readout assay that uses extracted gene-proteins from Rat forebrain membranes in a tissue-based cell-free assay. Measurements were taken 1 hour after chemical dosing in a 48-well plate.NVS_LGIC_rAMPA is one of one assay component(s) measured or calculated from the NVS_LGIC_rAMPA assay. It is designed to make measurements of radioligand binding, a form of binding reporter, as detected with scintillation counting signals by Filter-based radiodetection technology.Data from the assay component NVS_LGIC_rAMPA was analyzed into 1 assay endpoint. This assay endpoint, NVS_LGIC_rAMPA, was analyzed in the positive analysis fitting direction relative to DMSO as the negative control and baseline of activity. Using a type of binding reporter, loss-of-signal activity can be used to understand changes in the binding as they relate to the gene Gria1. Furthermore, this assay endpoint can be referred to as a primary readout, because the performed assay has only produced 1 assay endpoint. To generalize the intended target to other relatable targets, this assay endpoint is annotated to the ion channel intended target family, where the subfamily is ligand-gated ion channel.
Binding assays used specific radioligands (tritiated, iodinated) with non-radioactive competitive displacement ligands in agonist or antagonist protocols (as indicated) and various reference compounds and inhibitors to titrate specific binding to receptors and transporters. Most enzyme assays (CYPs, kinases, phosphatases, proteases, HDACs) used recombinant protein and specific substrates (fluorescence mostly, some colorimetric and radioactive) and inhibitors, followed by a biochemical separation of substrate and product. All assays for the biochemical HTS were initially run in duplicate at a single concentration (10 uM for CYP450 assays and 25 uM for all others). Assay-chemical combinations meeting a pre-defined threshold (e.g., 30% inhibition and other criteria defined below) were then run in singleton concentration-response format with maximum concentration of 20 uM for CYPs and 50 uM for all others. Each assay was run with positive and negative controls, and concurrent controls on every plate. The follow-up (secondary) screen tested active chemical-pairs in concentration series, as well as a few additional assays not tested in the primary screen, some selected negative inactives, and several cases re-run in the concentration series for confirmatory purposes.

AC50, active:
Nc1nc(N)c2nc(CNc3ccc(C(=O)N[C@@H](CCC(=O)O)C(=O)O)cc3)cnc2n1 23200 nM
O=C(OC[C@H]1O[C@@H](OC(=O)c2cc(O)c(O)c(OC(=O)c3cc(O)c(O)c(O)c3)c2)[C@H](OC(=O)c2cc(O)c(O)c(OC(=O)c3cc(O)c(O)c(O)c3)c2)[C@@H](OC(=O)c2cc(O)c(O)c(OC(=O)c3cc(O)c(O)c(O)c3)c2)[C@@H]1OC(=O)c1cc(O)c(O)c(OC(=O)c2cc(O)c(O)c(O)c2)c1)c1cc(O)c(O)c(OC(=O)c2cc(O)c(O)c(O)c2)c1 9440 nM

AC50, inconclusive:
CCCCC(CC)CO (configuration not stated) 728 nM
CC(C)c1nnc2ccc(-c3ocnc3-c3cc(F)ccc3F)cn12 407 nM
CN[C@H]1CC[C@@H](c2ccc(Cl)c(Cl)c2)c2ccc(S(N)(=O)=O)cc21 344 nM
CC(C)(C)c1cc(O)c(C(C)(C)C)cc1O 25000 nM
OCCC(F)(F)C(F)(F)C(F)(F)C(F)(F)C(F)(F)C(F)(F)C(F)(F)C(F)(F)F 301 nM
CN(C)c1ccc(N=NS(=O)(=O)O)cc1 108 nM
Cc1ccc(N(C)C)cc1 25000 nM
Cn1cnc2c1c(=O)[nH]c(=O)n2C 54.7 nM
CCn1nc(C)c2c1C(=O)NCC(c1ccc(O)cc1)=N2 551 nM

2 entries drawn at random from the list so far, as already listed:
AC50, inconclusive:
CCn1nc(C)c2c1C(=O)NCC(c1ccc(O)cc1)=N2 551 nM
Cc1ccc(N(C)C)cc1 25000 nM

Following part.

outcome, inactive:
CCCCC(CC)COP(=O)(OCC(CC)CCCC)OCC(CC)CCCC (configuration not stated)
